Patent US20120149060A1 (EUROPAISCHES LABORATORIUM FUR MOLEKULARBIOLOGIE EMBL, published 2012)
Results are given in words; binding and its absence hold for the method and conditions named. Some binding calls cover weakened binding; strength is not graded here. Tags and fused reporters may be left off the sequences shown.

Biological target: T1, NYB (amino acids 49-141) (human) (UniProt P25208)
T1 sequence (looked up): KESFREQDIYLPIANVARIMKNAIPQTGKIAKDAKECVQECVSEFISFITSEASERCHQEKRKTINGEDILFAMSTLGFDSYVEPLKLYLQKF
Assay: co-expression in E. coli by cotransformation, Ni2+ capture by the His6 tag on NYC, then S75HR size exclusion chromatography

B1: NYC (amino acids 27-12) with a six-histidine tag at the N-terminus (protein, human, UniProt Q13952 27-120, looked up, not shown: small tags and cut ends)
chain: MEEIRNLTVKDFRVQELPLARIKKIMKLDEDVKMISAEAPVLFAKAAQIFITELTLRAWIHTEDNKRRTLQRNDIAMAITKFDQFDFLIDIVPR
In the case of B1, the binding is reported as “binds”.
